In PMC10359629 one finds binding result and Kd data, which are given here for two sequences.

For some of these results: No signal at the amounts used counts as a negative. Protein sequences can lack the tags named with them. For some of these results: The exact form of at least one protein or probe is not confirmed.

Data set [1] has as its target T1, DinB-PAD (Escherichia coli) (UniProt Q47155).
T1 sequence (looked up): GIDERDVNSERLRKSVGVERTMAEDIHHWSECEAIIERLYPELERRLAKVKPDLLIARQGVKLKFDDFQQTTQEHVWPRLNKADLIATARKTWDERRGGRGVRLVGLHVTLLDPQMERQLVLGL
In words: NMR titration. The note with it: NMR titrations: NMR buffer (composition in Supplementary Table S2, not fully given), 298 K; recombinant protein; residues 228-351; protein details: His6-SUMO, cleaved with SenP1.

In data set [2] the target is T2, DinBΔPAD (Escherichia coli) (UniProt Q47155).
T2 sequence (looked up): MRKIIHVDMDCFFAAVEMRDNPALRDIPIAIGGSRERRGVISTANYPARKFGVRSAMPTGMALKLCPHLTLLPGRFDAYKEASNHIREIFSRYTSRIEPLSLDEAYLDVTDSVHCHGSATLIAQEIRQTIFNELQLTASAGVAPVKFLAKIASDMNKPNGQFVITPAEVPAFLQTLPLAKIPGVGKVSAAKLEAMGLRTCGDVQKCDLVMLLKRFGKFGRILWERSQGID
The data set can be described thus: BLI. The conditions noted are these: 10 mM MgSO4; BLI: 50 mM KPi pH 6.5, 50 mM NaCl, 10 mM MgSO4, 1 mM TCEP, 303 K; recombinant protein; residues 1-230.

Data set [3] has as its target T1, DinB-PAD (Escherichia coli). The data set can be described thus: BLI. The note with it: 10 mM MgSO4; BLI: 50 mM KPi pH 6.5, 50 mM NaCl, 10 mM MgSO4, 1 mM TCEP, 303 K; recombinant protein; residues 228-351; protein details: His6-SUMO, cleaved with SenP1.
In data set [4] the target is T3, DinB (DNA polymerase IV) (Escherichia coli) (UniProt Q47155).
T3 sequence (looked up): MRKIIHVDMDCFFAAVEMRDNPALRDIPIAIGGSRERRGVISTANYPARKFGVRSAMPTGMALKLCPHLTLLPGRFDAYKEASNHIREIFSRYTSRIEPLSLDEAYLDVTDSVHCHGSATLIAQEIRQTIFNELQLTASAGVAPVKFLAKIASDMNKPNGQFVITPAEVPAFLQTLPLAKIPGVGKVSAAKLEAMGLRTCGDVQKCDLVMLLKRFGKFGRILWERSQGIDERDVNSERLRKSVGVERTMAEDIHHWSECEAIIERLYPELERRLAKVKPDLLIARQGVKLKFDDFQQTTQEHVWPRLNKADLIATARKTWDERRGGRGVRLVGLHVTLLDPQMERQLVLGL
The data set can be described thus: BLI. The note with it: 10 mM MgSO4; BLI: 50 mM KPi pH 6.5, 50 mM NaCl, 10 mM MgSO4, 1 mM TCEP, 303 K; recombinant protein; residues 1-351; protein details: N-terminal His6.

For orientation: Kd means the concentration at which binding is half-saturated.

Regarding “TCTAGGGTCCTAGGACCC (double strand) [18mer dsDNA]”, the binding result in data set [1] is listed as “no binding”.
For the sequence “TCTAGGGTCCTAGGACCC (double strand) [biotin-18mer dsDNA (BLI)]”, the Kd is 2 nM in data set [2] and 5.3 nM in data set [4]. The binding result in data set [3] is recorded as “no binding”.
